Among all 52,000 sequences or so, about 210 (0.4%) were called active.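 The calls were made as follows: active = gene whose silencing raises cell survival under the drug, median off-target-corrected z-score across its silencing RNAs 2 or more; inactive = the rest.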 This is one part of the list.

66 sequences from PubChem BioAssay AID1347423 (Functional Genomics Laboratory (NCATS/FGL), 2020) can be followed below.

A short description of this test: Resistance to Poly (ADP-Ribose) Polymerase inhibitor: Gene Identification via Genome-wide siRNA Screen. The following applies: mouse BRCA2 R2336H ES cells, olaparib, CellTiter-Glo viability; active compounds read high. An outline of the steps: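 Mouse BRCA2 R2336H ES cells were reverse-transfected with siRNA (20 nM final), treated at 48 h with 500 nM olaparib, and read by CellTiter-Glo after 72 h. Scores: MAD-based z per siRNA, median per gene, seed off-target correction.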
On the technique in general: In ATP-based viability assays light output follows the ATP content of the culture.
For GGUCCUUUGAUGCUGACUGTT against Sfrp4, the z-score is inactive: -0.159. The result for GCCCUAUCGUUCUGAAAUATT against Galc reads inactive: -0.0877; that for CCUAGCUCUCUAGAAUAGATT against Msn, inactive: -0.0384; that for GGGCAGCUCAUGUCCUAUATT against Scfd2, inactive: -0.732.

For the sequence GGAGAGGUUUAGUAAUUACTT against Trim21, the z-score was inactive: 0.05. The result for GGAGCCUGUUCCAGAAUUGTT against Bcl7c reads inactive: 0.579; that for GGUUUUGAAUACAAAAAGGTT against Copg2, inactive: -0.514; that for GGAAAAGGAAACCCAGAGCTT against Tdg, inactive: 0.903. For CGCAACAGCUAGGAUUUUUTT against Mod1, the z-score was inactive: 1.09. The result for GGAGGAAGACCUGAAGAAGTT against Gck reads inactive: -1.6; that for “GGGCCUUGUUCCUCUUGAATT against 3110005P07Rik”, inactive: -1.86; that for GGUGGCCUUACAAAUGCCATT against Dph2l1, inactive: 0.792. GGAGCUGCGCAGUUUAGAATT against Rab24: the z-score was inactive: -0.24. The result for “GCUCAGCUCAAAUGCGGUUTT against 4931431C16Rik” reads inactive: 0.12; that for GCUAUUCCAACAUGAAUCCTT against Klk21, inactive: 1.41. The result for GGUCAAUCUUUGGAGUAUUTT against Stk39 reads inactive: -0.594; that for CGUCUGUUUACCUCAUGAATT against Arid3a, inactive: 1.07; that for GGGAUUUUCAAAGUGAGAATT against Pmaip1, inactive: 0.313. For the sequence CCAAGAUUACUGAACCUACTT against Lin28, the z-score was inactive: 0.056. The result for GGUUUGUCAGGUUCUAAAATT against Atf1 reads inactive: 2.2; that for GCUAGGAUUAAUGAGGAAATT against Cul3, inactive: -0.494; that for GGUGAAAACAAUGACUUUGTT against BC038156, inactive: 0.269.

As for CGGUCACACAAAAAACAGATT against AU019823, the z-score was inactive: -1.51. Regarding “CCCUAUUUUAACCGUGUUATT against 7420416P09Rik”, the z-score is inactive: 1.13.

With GGGAGCAAAUGUAAUUUAUTT against Tbpl1, the z-score was inactive: 0.12. Turning to GCCUGGAUUCAGAAGCUACTT against Ugt1a1, the z-score was inactive: 0.72.

Take “GGAACAGAUGUGGUUAUAATT against 2010002H18Rik”: the z-score is inactive: -0.406.

Turning to GGACUGCUGUCACCAUUUCTT against Gpr132, the z-score is inactive: 0.238. As to GGAAGGAGUAUGGCAGGAGTT against Fbxo17, the z-score is inactive: -0.207. Consider “GGCUGGACACUUCAAAAUGTT against 4930412M03Rik”, for which the z-score was inactive: 0.00325.

On to GGCCUUGUGUGCAAUGAGATT against Mfge8, for which the z-score is inactive: -2.18. Take “GCAGAUCAACAAAUAGGAUTT against 5630401J11Rik”: the z-score is inactive: 2.02. Under GGAAGAAAUCAUCCACAACTT against Bid stands inactive: -0.787; under GGUAUAAGACCUUUUCAACTT against Olfr509, inactive: 1.38. As for GGGUGAAGUAGGUGAAAAATT against H2-M10.6, the z-score is inactive: -1.85. As to GGAGGAAGAGCUCAUUGCATT against Tnnt1, the z-score is inactive: -1.56. For GGCCAAGGGAAAAAAACCCTT against Pax7, the z-score is inactive: 0.0209.

“GCCUACAGAGUCUUAGUUATT against 2400003B06Rik”: the z-score was inactive: 0.0277. CCAUUGUAGUCAGUCAAAUTT against Pip: the z-score was inactive: 0.839. Take UACCCGAAUGCAGACAGGATT against Raet1a: the z-score is inactive: -0.322. As to GGGACUCAGAAUCCACACUTT against Olfr1046, the z-score is inactive: -2.43. As to “GGACUCAGCACUCUUUUGCTT against E130311K13”, the z-score is inactive: -0.167. GGAUAGUUUUGUGUUUGAUTT against Gab2: the z-score is inactive: 0.199. The result for GACUACACUGAUUUUUCAUTT against Olfr980 reads inactive: 0.00576; that for “GGCUGAGUCCUAAUAGCCUTT against 4930565A21Rik”, inactive: -1.05; that for CCCUAUUCUGCUUUCACUUTT against Sap18, inactive: -0.0919. Regarding CGAUUAUGAGCACUAUAUUTT against Ddx20, the z-score was inactive: 0.484. For the sequence GCACUUAUGCCAGAUUGGCTT against Ifi35, the z-score is inactive: -0.00551.

As to “GGUUGGCAGCGUGGUAACUTT against 3110045G13Rik”, the z-score is inactive: -1.33. The result for GGACUCCAGACUUGAAACATT against Uchl5 reads inactive: -2.24. Regarding GCCAAGAGUUUGAUAUAUATT against BC030417, the z-score is inactive: -0.162. Under GGUAGUGGAUGGGAGCUCATT against Thtpa stands inactive: -0.779; under CGGAAAAGAUCCCUAUUGUTT against Adam5, inactive: -0.0652; under GCUUUCGGUGGAUUCCUUATT against Rarsl, inactive: 0.437. Under “AGCGGACUGAUACAUGAAATT against 2900090M10Rik” stands inactive: 1.76; under AGAGUUGUCCAUGUUCCAGTT against Six3, inactive: 0.477; under CCUAGAGCUGAAGAGAUUATT against Aif1, inactive: 0.206.

CCAACAACUCUGUAUGCUGTT against Olfr1355: the z-score is inactive: 1.1. The result for GGUGUCUUCAGUUAUAGAUTT against Pard6a reads inactive: -0.373; that for CGAACUGCCUUCCUUAAUATT against Hist1h1c, inactive: -0.839. For GGAAGGACAAAGAAAGCCUTT against Fbxw4, the z-score was inactive: 0.661. The result for “GCCAUAUCUGGUCACAUGUTT against 3830402I07Rik” reads inactive: -0.223.

“GGGUGCUUACAGAAUAUCUTT against 1700025F22Rik”: the z-score is inactive: -0.341. GCCUGCACGAUUGGAAUUATT against Aqr: the z-score is inactive: -0.941. The result for “GGUGAAUGCUUGUCUGCACTT against Ng23-pending” reads inactive: 0.218; that for GGAUCUCUACCAUUUGAUUTT against Rps13, inactive: -2.88.
